We go through one substance from PMC10295924.

Results are given in words; binding and its absence hold for the method and conditions named. In cells and extracts the contact can be indirect. For part of these data: A result given as binding can be weak or reduced; the word gives no strength.

What all share (test): pull-down; HEK293T cells co-transfected with MYC-LEF1 (or its mutants) and SFB-tagged DUB (or OTUD7B mutants); SFB protein pulled down from lysate with S-protein beads; immunoblot with anti-MYC and anti-FLAG
The target in one test is T1, SFB-USP36 (human) (UniProt Q9P275).
T1 sequence: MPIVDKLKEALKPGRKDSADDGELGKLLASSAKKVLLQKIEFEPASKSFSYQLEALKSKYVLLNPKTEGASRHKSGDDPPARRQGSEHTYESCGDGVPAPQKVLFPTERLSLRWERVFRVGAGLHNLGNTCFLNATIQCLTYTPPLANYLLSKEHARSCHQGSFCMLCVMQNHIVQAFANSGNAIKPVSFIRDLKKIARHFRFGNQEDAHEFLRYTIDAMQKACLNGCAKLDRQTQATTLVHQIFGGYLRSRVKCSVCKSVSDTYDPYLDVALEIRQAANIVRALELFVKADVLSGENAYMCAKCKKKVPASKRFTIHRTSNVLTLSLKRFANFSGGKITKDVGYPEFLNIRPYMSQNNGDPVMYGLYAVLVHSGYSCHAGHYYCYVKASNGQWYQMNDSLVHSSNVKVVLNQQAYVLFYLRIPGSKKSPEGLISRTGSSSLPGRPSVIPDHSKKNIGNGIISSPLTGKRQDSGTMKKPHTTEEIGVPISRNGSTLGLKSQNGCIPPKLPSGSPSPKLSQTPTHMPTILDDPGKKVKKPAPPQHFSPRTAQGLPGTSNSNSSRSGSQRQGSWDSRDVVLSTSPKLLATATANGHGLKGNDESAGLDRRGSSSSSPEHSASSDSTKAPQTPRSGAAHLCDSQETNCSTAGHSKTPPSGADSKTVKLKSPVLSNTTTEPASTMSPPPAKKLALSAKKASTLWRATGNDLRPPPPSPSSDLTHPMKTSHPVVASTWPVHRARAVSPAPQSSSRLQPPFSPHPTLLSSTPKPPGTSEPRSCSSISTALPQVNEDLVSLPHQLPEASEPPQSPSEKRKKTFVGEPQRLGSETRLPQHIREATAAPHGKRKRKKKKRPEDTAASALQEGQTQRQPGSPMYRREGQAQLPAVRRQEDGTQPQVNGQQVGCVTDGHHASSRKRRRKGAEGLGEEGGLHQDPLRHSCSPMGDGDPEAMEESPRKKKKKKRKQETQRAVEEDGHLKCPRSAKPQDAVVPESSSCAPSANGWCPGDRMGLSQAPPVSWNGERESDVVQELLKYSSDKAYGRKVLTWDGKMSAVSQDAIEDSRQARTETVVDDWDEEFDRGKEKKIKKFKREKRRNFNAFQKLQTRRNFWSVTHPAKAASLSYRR

A further test addresses T2, SFB-USP26 (human) (UniProt Q9BXU7).
T2 sequence: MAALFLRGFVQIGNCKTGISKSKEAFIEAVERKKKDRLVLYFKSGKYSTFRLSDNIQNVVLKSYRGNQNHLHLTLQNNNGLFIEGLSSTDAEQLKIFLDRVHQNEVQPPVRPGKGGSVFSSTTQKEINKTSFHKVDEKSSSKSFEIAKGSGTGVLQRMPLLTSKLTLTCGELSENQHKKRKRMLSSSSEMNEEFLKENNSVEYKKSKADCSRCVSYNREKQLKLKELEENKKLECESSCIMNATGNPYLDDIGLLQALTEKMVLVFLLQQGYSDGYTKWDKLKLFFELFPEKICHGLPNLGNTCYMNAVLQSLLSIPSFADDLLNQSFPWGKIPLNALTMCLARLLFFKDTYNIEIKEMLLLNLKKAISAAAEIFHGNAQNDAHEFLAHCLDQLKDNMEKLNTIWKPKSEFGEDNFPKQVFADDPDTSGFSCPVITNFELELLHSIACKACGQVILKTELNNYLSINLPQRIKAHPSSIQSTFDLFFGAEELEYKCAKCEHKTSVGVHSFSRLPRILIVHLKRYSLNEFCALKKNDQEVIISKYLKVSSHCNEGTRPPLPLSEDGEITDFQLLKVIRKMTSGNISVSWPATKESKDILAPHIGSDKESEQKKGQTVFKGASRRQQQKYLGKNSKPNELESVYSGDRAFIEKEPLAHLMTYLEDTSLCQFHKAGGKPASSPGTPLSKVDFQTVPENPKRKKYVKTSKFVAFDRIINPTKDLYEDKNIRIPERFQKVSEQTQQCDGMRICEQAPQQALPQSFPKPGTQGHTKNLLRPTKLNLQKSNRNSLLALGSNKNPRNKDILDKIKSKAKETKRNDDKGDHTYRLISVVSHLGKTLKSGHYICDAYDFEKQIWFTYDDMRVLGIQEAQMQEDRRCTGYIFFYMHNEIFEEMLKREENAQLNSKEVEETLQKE

The next test addresses T3, SFB-USP42 (human) (UniProt Q9H9J4).
T3 sequence: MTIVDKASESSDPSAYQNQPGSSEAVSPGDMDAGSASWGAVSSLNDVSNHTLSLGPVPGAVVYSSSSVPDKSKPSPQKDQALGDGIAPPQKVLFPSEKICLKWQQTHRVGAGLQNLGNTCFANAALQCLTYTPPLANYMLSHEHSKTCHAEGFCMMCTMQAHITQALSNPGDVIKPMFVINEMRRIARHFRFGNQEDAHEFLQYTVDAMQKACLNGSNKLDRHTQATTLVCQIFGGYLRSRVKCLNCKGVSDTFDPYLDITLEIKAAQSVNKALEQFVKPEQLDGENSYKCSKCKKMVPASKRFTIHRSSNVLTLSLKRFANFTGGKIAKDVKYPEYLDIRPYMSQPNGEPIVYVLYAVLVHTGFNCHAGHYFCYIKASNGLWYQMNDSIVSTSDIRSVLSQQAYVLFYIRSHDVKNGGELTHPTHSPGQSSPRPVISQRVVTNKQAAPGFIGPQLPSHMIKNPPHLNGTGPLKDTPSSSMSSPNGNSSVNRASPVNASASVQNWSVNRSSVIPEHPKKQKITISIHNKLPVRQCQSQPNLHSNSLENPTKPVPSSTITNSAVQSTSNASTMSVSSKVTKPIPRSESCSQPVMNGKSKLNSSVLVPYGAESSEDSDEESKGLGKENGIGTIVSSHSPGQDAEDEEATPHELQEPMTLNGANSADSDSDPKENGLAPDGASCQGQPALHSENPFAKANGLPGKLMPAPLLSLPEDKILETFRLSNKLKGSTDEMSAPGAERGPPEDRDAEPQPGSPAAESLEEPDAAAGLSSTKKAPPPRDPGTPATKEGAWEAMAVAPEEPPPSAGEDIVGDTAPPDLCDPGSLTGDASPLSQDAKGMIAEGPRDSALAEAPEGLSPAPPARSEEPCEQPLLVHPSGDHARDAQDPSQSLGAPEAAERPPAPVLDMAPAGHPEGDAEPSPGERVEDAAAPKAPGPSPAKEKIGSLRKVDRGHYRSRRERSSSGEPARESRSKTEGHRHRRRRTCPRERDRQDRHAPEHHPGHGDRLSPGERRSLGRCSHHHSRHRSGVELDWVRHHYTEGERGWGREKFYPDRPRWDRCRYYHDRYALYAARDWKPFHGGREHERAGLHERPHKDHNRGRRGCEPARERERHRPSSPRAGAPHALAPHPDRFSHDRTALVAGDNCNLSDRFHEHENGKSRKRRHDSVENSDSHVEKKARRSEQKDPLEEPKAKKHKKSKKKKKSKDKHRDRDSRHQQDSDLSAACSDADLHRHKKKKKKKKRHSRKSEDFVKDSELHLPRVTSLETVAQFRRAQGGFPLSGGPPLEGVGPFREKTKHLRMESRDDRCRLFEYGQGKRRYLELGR

As for “MYC-LEF1 (Lymphoid enhancer-binding factor 1), full length (human)”, the binding result with SFB-USP36 (human) was “binds”; with SFB-USP26 (human) it was “no binding”; in the test with SFB-USP42 (human), “no binding”.
